# Test results taken from article PMC7956269.
# Molecular target: Biotin-FOXC1 (mouse) (UniProt Q61572)
# Experiment: affinity purification with mass spectrometry; streptavidin-agarose precipitation of biotinylated FOXC1 from nuclear extract of stable HEK293T cells (293T-Biotin-FOXC1); IP350 buffer (350 mM NaCl, 20 mM Tris-HCl pH 7.5, 0.5% NP40, 1 mM EDTA, 10% glycerin); SDS-PAGE, LC-ESI-MS/MS; proteins of the 293T-Biotin control deducted
row,Binder,binding
1,"Picalm (protein, UniProt Q13492 1-652) MSGQSLTDRITAAQHSVTGSAVSKTVCKATTHEIMGPKKKHLDYLIQCTNEMNVNIPQLADSLFERTTNSSWVVVFKSLITTHHLMVYGNERFIQYLASRNTLFNLSNFLDKSGLQGYDMSTFIRRYSRYLNEKAVSYRQVAFDFTKVKRGADGVMRTMNTEKLLKTVPIIQNQMDALLDFNVNSNELTNGVINAAFMLLFKDAIRLFAAYNEGIINLLEKYFDMKKNQCKEGLDIYKKFLTRMTRISEFLKVAEQVGIDRGDIPDLSQAPSSLLDALEQHLASLEGKKIKDSTAASRATTLSNAVSSLASTGLSLTKVDEREKQAALEEEQARLKALKEQRLKELAKKPHTSLTTAASPVSTSAGGIMTAPAIDIFSTPSSSNSTSKLPNDLLDLQQPTFHPSVHPMSTASQVASTWGDPFSATVDAVDDAIPSLNPFLTKSSGDVHLSISSDVSTFTTRTPTHEMFVGFTPSPVAQPHPSAGLNVDFESVFGNKSTNVIVDSGGFDELGGLLKPTVASQNQNLPVAKLPPSKLVSDDLDSSLANLVGNLGIGNGTTKNDVNWSQPGEKKLTGGSNWQPKVAPTTAWNAATMAPPVMAYPATTPTGMIGYGIPPQMGSVPVMTQPTLIYSQPVMRPPNPFGPVSGAQIQFM",binds
2,"Pycrl (protein, UniProt Q53H96 1-274) MAAAEPSPRRVGFVGAGRMAGAIAQGLIRAGKVEAQHILASAPTDRNLCHFQALGCRTTHSNQEVLQSCLLVIFATKPHVLPAVLAEVAPVVTTEHILVSVAAGVSLSTLEELLPPNTRVLRVLPNLPCVVQEGAIVMARGRHVGSSETKLLQHLLEACGRCEEVPEAYVDIHTGLSGSGVAFVCAFSEALAEGAVKMGMPSSLAHRIAAQTLLGTAKMLLHEGQHPAQLRSDVCTPGGTTIYGLHALEQGGLRAATMSAVEAATCRAKELSRK",binds
3,"Luc7l2 (protein, UniProt Q9Y383 1-392) MSAQAQMRAMLDQLMGTSRDGDTTRQRIKFSDDRVCKSHLLNCCPHDVLSGTRMDLGECLKVHDLALRADYEIASKEQDFFFELDAMDHLQSFIADCDRRTEVAKKRLAETQEEISAEVAAKAERVHELNEEIGKLLAKVEQLGAEGNVEESQKVMDEVEKARAKKREAEEVYRNSMPASSFQQQKLRVCEVCSAYLGLHDNDRRLADHFGGKLHLGFIEIREKLEELKRVVAEKQEKRNQERLKRREEREREEREKLRRSRSHSKNPKRSRSREHRRHRSRSMSRERKRRTRSKSREKRHRHRSRSSSRSRSRSHQRSRHSSRDRSRERSKRRSSKERFRDQDLASCDRDRSSRDRSPRDRDRKDKKRSYESANGRSEDRRSSEEREAGEI",binds
4,"Cpsf2 (protein, UniProt Q9P2I0 1-782) MTSIIKLTTLSGVQEESALCYLLQVDEFRFLLDCGWDEHFSMDIIDSLRKHVHQIDAVLLSHPDPLHLGALPYAVGKLGLNCAIYATIPVYKMGQMFMYDLYQSRHNTEDFTLFTLDDVDAAFDKIQQLKFSQIVNLKGKGHGLSITPLPAGHMIGGTIWKIVKDGEEEIVYAVDFNHKREIHLNGCSLEMLSRPSLLITDSFNATYVQPRRKQRDEQLLTNVLETLRGDGNVLIAVDTAGRVLELAQLLDQIWRTKDAGLGVYSLALLNNVSYNVVEFSKSQVEWMSDKLMRCFEDKRNNPFQFRHLSLCHGLSDLARVPSPKVVLASQPDLECGFSRDLFIQWCQDPKNSIILTYRTTPGTLARFLIDNPSEKITEIELRKRVKLEGKELEEYLEKEKLKKEAAKKLEQSKEADIDSSDESDIEEDIDQPSAHKTKHDLMMKGEGSRKGSFFKQAKKSYPMFPAPEERIKWDEYGEIIKPEDFLVPELQATEEEKSKLESGLTNGDEPMDQDLSDVPTKCISTTESIEIKARVTYIDYEGRSDGDSIKKIINQMKPRQLIIVHGPPEASQDLAECCRAFGGKDIKVYMPKLHETVDATSETHIYQVRLKDSLVSSLQFCKAKDAELAWIDGVLDMRVSKVDTGVILEEGELKDDGEDSEMQVEAPSDSSVIAQQKAMKSLFGDDEKETGEESEIIPTLEPLPPHEVPGHQSVFMNEPRLSDFKQVLLREGIQAEFVGGVLVCNNQVAVRRTETGRIGLEGCLCQDFYRIRDLLYEQYAIV",binds
5,"Krt9 (protein, UniProt P35527 1-623) MSCRQFSSSYLSRSGGGGGGGLGSGGSIRSSYSRFSSSGGGGGGGRFSSSSGYGGGSSRVCGRGGGGSFGYSYGGGSGGGFSASSLGGGFGGGSRGFGGASGGGYSSSGGFGGGFGGGSGGGFGGGYGSGFGGFGGFGGGAGGGDGGILTANEKSTMQELNSRLASYLDKVQALEEANNDLENKIQDWYDKKGPAAIQKNYSPYYNTIDDLKDQIVDLTVGNNKTLLDIDNTRMTLDDFRIKFEMEQNLRQGVDADINGLRQVLDNLTMEKSDLEMQYETLQEELMALKKNHKEEMSQLTGQNSGDVNVEINVAPGKDLTKTLNDMRQEYEQLIAKNRKDIENQYETQITQIEHEVSSSGQEVQSSAKEVTQLRHGVQELEIELQSQLSKKAALEKSLEDTKNRYCGQLQMIQEQISNLEAQITDVRQEIECQNQEYSLLLSIKMRLEKEIETYHNLLEGGQEDFESSGAGKIGLGGRGGSGGSYGRGSRGGSGGSYGGGGSGGGYGGGSGSRGGSGGSYGGGSGSGGGSGGGYGGGSGGGHSGGSGGGHSGGSGGNYGGGSGSGGGSGGGYGGGSGSRGGSGGSHGGGSGFGGESGGSYGGGEEASGSGGGYGGGSGKSSHS",binds

# Next, values leading:
row,binding,Binder
1,binds,"Surf6 (protein, UniProt O75683 1-361) MASLLAKDAYLQSLAKKICSHSAPEQQARTRAGKTQGSETAGPPKKKRKKTQKKFRKREEKAAEHKAKSLGEKSPAASGARRPEAAKEEAAWASSSAGNPADGLATEPESVFALDVLRQRLHEKIQEARGQGSAKELSPAALEKRRRRKQERDRKKRKRKELRAKEKARKAEEATEAQEVVEATPEGACTEPREPPGLIFNKVEVSEDEPASKAQRRKEKRQRVKGNLTPLTGRNYRQLLERLQARQSRLDELRGQDEGKAQELEAKMKWTNLLYKAEGVKIRDDERLLQEALKRKEKRRAQRQRRWEKRTAGVVEKMQQRQDRRRQNLRRKKAARAERRLLRARKKGRILPQDLERAGLV"
2,binds,"Vcpip1 (protein, UniProt Q96JH7 1-1222) MSQPPPPPPPLPPPPPPPEAPQTPSSLASAAASGGLLKRRDRRILSGSCPDPKCQARLFFPASGSVSIECTECGQRHEQQQLLGVEEVTDPDVVLHNLLRNALLGVTGAPKKNTELVKVMGLSNYHCKLLSPILARYGMDKQTGRAKLLRDMNQGELFDCALLGDRAFLIEPEHVNTVGYGKDRSGSLLYLHDTLEDIKRANKSQECLIPVHVDGDGHCLVHAVSRALVGRELFWHALRENLKQHFQQHLARYQALFHDFIDAAEWEDIINECDPLFVPPEGVPLGLRNIHIFGLANVLHRPIILLDSLSGMRSSGDYSATFLPGLIPAEKCTGKDGHLNKPICIAWSSSGRNHYIPLVGIKGAALPKLPMNLLPKAWGVPQDLIKKYIKLEEDGGCVIGGDRSLQDKYLLRLVAAMEEVFMDKHGIHPSLVADVHQYFYRRTGVIGVQPEEVTAAAKKAVMDNRLHKCLLCGALSELHVPPEWLAPGGKLYNLAKSTHGQLRTDKNYSFPLNNLVCSYDSVKDVLVPDYGMSNLTACNWCHGTSVRKVRGDGSIVYLDGDRTNSRSTGGKCGCGFKHFWDGKEYDNLPEAFPITLEWGGRVVRETVYWFQYESDSSLNSNVYDVAMKLVTKHFPGEFGSEILVQKVVHTILHQTAKKNPDDYTPVNIDGAHAQRVGDVQGQESESQLPTKIILTGQKTKTLHKEELNMSKTERTIQQNITEQASVMQKRKTEKLKQEQKGQPRTVSPSTIRDGPSSAPATPTKAPYSPTTSKEKKIRITTNDGRQSMVTLKSSTTFFELQESIAREFNIPPYLQCIRYGFPPKELMPPQAGMEKEPVPLQHGDRITIEILKSKAEGGQSAAAHSAHTVKQEDIAVTGKLSSKELQEQAEKEMYSLCLLATLMGEDVWSYAKGLPHMFQQGGVFYSIMKKTMGMADGKHCTFPHLPGKTFVYNASEDRLELCVDAAGHFPIGPDVEDLVKEAVSQVRAEATTRSRESSPSHGLLKLGSGGVVKKKSEQLHNVTAFQGKGHSLGTASGNPHLDPRARETSVVRKHNTGTDFSNSSTKTEPSVFTASSSNSELIRIAPGVVTMRDGRQLDPDLVEAQRKKLQEMVSSIQASMDRHLRDQSTEQSPSDLPQRKTEVVSSSAKSGSLQTGLPESFPLTGGTENLNTETTDGCVADALGAAFATRSKAQRGNSVEELEEMDSQDAEMTNTTEPMDHS"

# Results are given in words; binding and its absence hold for the method and conditions named. Binding seen in cells or lysates may run through a third protein. A yes stands for co-enrichment or nearness to the bait. Other partners may have been found. Where a sequence is shown, tags or fusion partners need not be part of it.
